PubChem BioAssay AID1259254, NCATS, 2017
Shown is one part, drawn at random, of about 59,000 reagents. About 1,550 of all reagents (2.6%) count as active. 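G2 share is only a proxy for re-replication; each gene was hit by three separate siRNAs, and active genes were retested.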 Entries without a mark were called inactive. The numbers tell different reagents against one gene apart. Not all columns of the deposit are shown. Reagent sequences are not shown. Not stated in the record: the amount of reagent.

- Assay: 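Finding genes that stop cells copying their DNA twice in one cycle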 (primary screen)
- System: human HCT116 colorectal cancer cells
- Reagents: single siRNA against human genes
- Time to read-out: 3 days
- Read-out: 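Imaged Hoechst DNA stain sorts each cell into a cycle phase by DNA amount; per plate, G2 fraction set to 0% for non-targeting and 100% for GMNN siRNA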
- Direction: G2 robust z-score: higher = more G2 cells, more excess DNA replication
- Hit rule: 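An siRNA counts as active if its G2 robust z-score lies at least 5 MADs above the screen median; here such calls match roughly 38% of GMNN control or more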

What did the screen give for GTF2IP3 #1?
G2 robust z-score: -0.336

What did the screen give for GTF2IP3 #2?
G2 robust z-score: 2.04

What did the screen give for GTF2IP3 #3?
G2 robust z-score: -0.196

With XKR4 #1, how do the results read?
G2 robust z-score: 0.291

What did the screen give for XKR4 #2?
G2 robust z-score: 0.236

What did the screen give for XKR4 #3?
G2 robust z-score: -0.711

With PTGES #1, what was measured?
G2 robust z-score: 0.697

What did the screen give for PTGES #2?
G2 robust z-score: -1.3

With PTGES #3, what was measured?
G2 robust z-score: -0.94

For LIMK1 #1, what was measured?
G2 robust z-score: -1.13

With LIMK1 #2, what does the deposit list?
G2 robust z-score: -0.849

How did the screen score LIMK1 #3?
G2 robust z-score: -0.456

With SLC25A29 #1, what does the deposit list?
G2 robust z-score: 0.502

What did the screen give for SLC25A29 #2?
G2 robust z-score: -0.769

With SLC25A29 #3, what does the deposit list?
G2 robust z-score: -1.17

With NR3C1 #1, what does the deposit list?
G2 robust z-score: -0.869

What is on record for NR3C1 #2?
G2 robust z-score: 6.48 (active)

Which result is listed for NR3C1 #3?
G2 robust z-score: -0.0125

Which result is listed for EIF3CL #1?
G2 robust z-score: 5.12 (active)

With EIF3CL #2, how do the results read?
G2 robust z-score: 4.06

How did the screen score EIF3CL #3?
G2 robust z-score: 3.09

How did the screen score C5orf58 #1?
G2 robust z-score: 1.76

What is on record for C5orf58 #2?
G2 robust z-score: -0.386

What did the screen give for C5orf58 #3?
G2 robust z-score: 0.0686
